Patent US20230233707A1
No constants are given. Whether binding was seen depends on the method and setting. Some entries that bind do so weakly or less than the wild type.

How the values were obtained:
Conatumumab/AMG 655 [1] = test: SEC and NS-EM of AbC formed with intact hIgG1 (FIG. 2d-e)
Conatumumab/AMG 655 [2] = test: SEC, design mixed with full human IgG1 (AMG-655 according to paragraph 219), overlaid on the single components [panel D]
Conatumumab/AMG 655 [3] = test: cage formation verified by SEC at minimum
Conatumumab/AMG 655 [4] = test: SEC and NS-EM of AbC formed with conatumumab

Measured: binding

B1: d2.3 (designed binder)
chain: MSDEEERNELIKRIREAAQRAREAAERTGDPRVRELARELARIAQIAFYLVLHDPSSSEVNEALKAVVKAIELAVRALEEAEKTGDPEVRELAREVVRLAVEVATATAAGENDTLRKVAERALRLAKEAAKRGDAKAAKQAAKIAKLAAANAGDEDVLKKVELVRLAIELVEIVVENAKRKGDDDKEAAEAALAAFRIVLAAAQLAGIASLEVLELALRLIKEVVENAQREGYDIAVAAIAAAVAFAVVAVAAAAADITSSEVLELAIRLIKEVVENAQREGYVILLAALAAAAAFVVVAAAAKRAGITSSETLKRAIEEIRKRVEEAQREGNDISEAARQAAEEFRKKAEELKGSLEHHHHHH
binds: Conatumumab/AMG 655 [1] | Conatumumab/AMG 655 [2] | Conatumumab/AMG 655 [3]

B2: d2.4 (designed binder)
chain: MSDEEERNELIKRIREAAQRAREAAERTGDPRVRELARELARIAQIAFYLVLHDPSSSEVNEALKAVVKAIELAVRALEAAEKTGDPRVRELAREVVKAAVDVAEAAQAGLNDKLREVAEKALRLAKEALKEGDSTAAELAAEIARLAAKLAGDEDVLKKVKLVLEAIKLVKIVVENAKRKGDDSKEAAEAAVAAFLIVLAAAKLAGIASEEVLELAARLIKEVVENAQREGYDIAVAAIAAAVAFAVVAVAAAAADITSSEVLELAIRLIKEVVENAQREGYVILLAALAAAAAFVVVAAAAKRAGITSSETLKRAIEEIRKRVEEAQREGNDISEAARQAAEEFRKKAEELKGSLEHHHHHH
binds: all assays above

B3: d2.7 (designed binder)
chain: MSDEEERNELIKRIREAAQRAREAAERTGDPRVRELARELAKLAQIAFYLVLHDPSAKEVNLALELIVKAIELAVRALEEAEKTGDPHARELAREIVRLAVELARAVAEAAEEAKKQGNSELAEQVARAAQVALEVIKAAITAAKQGDRKAFRAALELVLEVIKAIEEAVKQGNPKKVAEVALKAELIRIVVQNAANKGDDADEAVEAARAAFEIVLAAAQLAGIDSEEVLELAARLIKEVVENAQREGYDIAVAAIAAAVAFAVVAVAAAAADITSSEVLELAIRLIKEVVENAVREGYVILLAALAAAAAFVVVAAAAKRAGITSSETLKRAIEEIRKRVEEAQREGNDISEAARQAAEEFRKKAEELKGSLEHHHHHH
binds: Conatumumab/AMG 655 [1] | Conatumumab/AMG 655 [2] | Conatumumab/AMG 655 [3]

B4: i52.3 (designed binder)
chain: MSDEEERNELIKRIREAAQRAREAAERTGDPRVRELARELARLAQRAFYLVLHDPSSSDVNEALKLIVEAIEAAVRALEAAERAGDPELREDAREAVRLAVEAAEEVQRNPSSSTANLLLKAIVALAEALAAAANGDKEKFKKAAESALEIAKRVVEVASKEGDPEAVLEAAKVALRVAELAAKNGDKEVFKKAAESALEVAKRLVEVASKEGDPELVLEAAKVALRVAELAAKNGDKEVFQKAAASAVEVALRLTEVASKEGDSELETEAAKVITRVRELASKQGDAAVAILAETAEVKLEIEESKKRPQSESAKNLILIMQLLINQIRLLVLQIRMLDEQRQEGSLEHHHHHH
binds: all assays above

B5: i52.6 (designed binder)
chain: MSDEEERNELIKRIREAAQRAREAAERTGDPRVRELARELARLAQRAFYLVLHDPSSSDVNEALKLIVEAIEAAVRALEAAERTGDPKVREEARELVRRAVEAAEEVQRNPSSSEVNEKLKAIVVEIEVKVASLEAKEVTDPDKALKIAKKVIELALEAVKENPSTEALRAVLEAVRLASEVAKRVTDPDKALKIAKLVIELALEAVKEDPSTDALRAVLEAVRLASEVAKRVTDPDKALKIAKLVLELAAEAVKEDPSTDALRAAKEAERLATEVAKRVTDPKKAREIEMLVLKLQMEAILAETEEVKKEIEESKKRPQSESAKNLILIMQLLINQIRLLALQIRMLALQLQEGSLEHHHHHH
binds: Conatumumab/AMG 655 [3]
